Test results: patent US20030162261A1
These are yes or no findings as the source states them, for the method shown. In cells and extracts the contact can be indirect. Some binding calls cover weakened binding; strength is not graded here.

Chains of the proteins cited; added tags and fusions are not shown. Lines headed by an entry give the natural chain unless they say otherwise; changes in a name come on top. Residues count along the entry.
UniProt Q9NPF7: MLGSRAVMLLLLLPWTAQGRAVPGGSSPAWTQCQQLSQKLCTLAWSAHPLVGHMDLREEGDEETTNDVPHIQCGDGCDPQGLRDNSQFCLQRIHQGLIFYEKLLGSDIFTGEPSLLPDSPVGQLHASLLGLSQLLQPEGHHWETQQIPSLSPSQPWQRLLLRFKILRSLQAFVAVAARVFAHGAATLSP
UniProt P29460, residues 23-328: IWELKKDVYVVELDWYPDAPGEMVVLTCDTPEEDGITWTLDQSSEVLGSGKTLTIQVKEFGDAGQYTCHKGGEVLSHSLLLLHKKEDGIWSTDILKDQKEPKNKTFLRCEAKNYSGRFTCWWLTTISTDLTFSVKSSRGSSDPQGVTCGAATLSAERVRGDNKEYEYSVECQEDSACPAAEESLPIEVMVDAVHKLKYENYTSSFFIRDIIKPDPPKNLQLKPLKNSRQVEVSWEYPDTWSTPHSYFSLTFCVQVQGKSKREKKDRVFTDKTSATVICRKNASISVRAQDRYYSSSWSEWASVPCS

Biological target: human FLAG-IL-B30 (human) (UniProt Q9NPF7)
Assay: coimmunoprecipitation from supernatant of cotransfected primate cells, PAGE

Q: With “human IL-12 p40 (from UniProt P29460 23-328) (ligand)” as the substance, how does the binding read?
A: binds
